Measurements: PubChem BioAssay AID1688 (National Center for Advancing Translational Sciences (NCATS), 2009)
The whole screen tested about 220,000 compounds, of which about 2,400 (1.1%) were called active. This list was built around the results that the source calls inconclusive (neither active nor inactive); the mix of calls is not that of the screen. Calls come from the whole dose curve; as a rule, active = well fitted inhibition curve with a large enough effect; inconclusive = small, poorly fitted or top-dose-only effect, or effect the other way; inactive = no such curve, though single readings can be large or run the other way. Potencies of inconclusive entries are doubtful fits and often do not repeat.

Assay: qHTS Multiplex Assay to Identify Dual Action Probes in a Cell Model of Huntington: Aggregate Formation (GFP); note: nearly all actives have a fitted effect of over 60% in size
Settings: PC12 HttQ103-GFP aggregates, Acumen cytometry, 40 h; activity change, negative = inhibition: at 46.1 µM (top of the series) unless noted
Method in brief: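 PC12/HTTQ103-GFP, ecdysone-inducible; teb 100 nM; cpd qHTS titration; GFP aggregates read on laser cytometer, Ex 488/Em 500-530 nm.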
% is set by controls: 0 for no effect and ±100 for the full control effect; potency is the fitted concentration of half-maximal effect.

SMILES	Potency	activity change, negative = inhibition
CCCc1c(O)nc(SC2CC(=O)N(c3cc(OC)ccc3OC)C2=O)[nH]c1=O (stereo unspecified)	inactive	–
O=C(CSc1cccc2cccc(Cl)c12)NCc1cccs1	inactive	–
Cc1ccc(Cn2c(CN3CCN(C(=O)c4ccco4)CC3)nc3c2c(=O)n(C)c(=O)n3C)cc1	inconclusive: 11.2 µM [activator, partial curve]	–
COc1cc(SC#N)ccc1N=Cc1c(C)[nH]n(-c2ccc(C)c(C)c2)c1=O	inactive	–
CCOc1ccc(NC(=O)c2cc(SC)ccc2Cl)cc1	inactive	–
COc1c(/C=N/NC(N)=S)c(C)nn1-c1ccccc1	inactive	–
COCCCNc1ncnc2ccc(C)cc12	inconclusive: 17.8 µM [inhibitor, single point]	–
COC(=O)CCCC1=CC2=C(c3ccccc3)C(=O)C(C)(OC(=O)C3CCCC3)C(=O)C2=CN1CCN1CCOCC1 (stereo unspecified)	–	inactive: -39.5% [at 9.22 µM]
Cc1ccc(S(=O)(=O)Nc2nc3ccccc3nc2Nc2cccc(S(=O)(=O)N3CCCC3)c2)cc1	inconclusive: 7.08 µM [inhibitor, partial curve]	–
c1nc(COc2nsnc2N2CCOCC2)cs1	inconclusive: 35.5 µM [activator, single point]	–
O=C(CCCN1C(=O)/C(=C/c2cccc(Br)c2)SC1=S)Nc1ccccn1	inconclusive: 35.5 µM [inhibitor, single point]	–
NC(CO)(CO)CO	inactive	–
C=CCn1c(O)c(N=NC(=S)Nc2ccc(OC)cc2)c2ccccc21	inconclusive: 3.98 µM [inhibitor, full curve]	–
CC(C)(C)c1ccc(C(=O)NCc2nnc(SCC(=O)N3CCCc4ccccc43)n2-c2ccccc2)cc1	inconclusive: 0.562 µM [activator, partial curve, poor fit]	–
CCOc1ccc(NS(=O)(=O)c2ccc3c(c2)CCN3C(=O)C2CCC2)cc1	inconclusive: 22.4 µM [inhibitor, single point]	–
CCCn1c(SCC(=O)N2CCN(C(=O)c3ccco3)CC2)nc2ccccc2c1=O	inactive	–
CCCNCC1C(Oc2ccc(Cl)cc2Cl)C(=O)N1c1cccc(C)c1C (stereo unspecified)	inconclusive: 25.1 µM [inhibitor, single point]	–
CCOC(=O)c1cccc(-n2c(-c3ccc(OC)cc3)nc3nc4ccccc4nc32)c1	inactive	–
CSc1nc2[nH]c3c(c2c2nnnn12)CCCC3	inconclusive: 10 µM [inhibitor, partial curve]	–
Cc1ccc2c(C)nc(Nc3nc(CSc4nnnn4-c4ccccc4)cc(=O)[nH]3)nc2c1	inconclusive: 15.8 µM [activator, partial curve]	–
CCCN(CCC)C(=O)CC(c1ccc(F)cc1)c1ccco1 (stereo unspecified)	inconclusive: 22.4 µM [activator, single point]	–
COc1ccc(Cc2noc(CN3CCN(Cc4cccc(Cl)c4)CC3)n2)cc1OC	–	inactive: 15.5% [at 9.22 µM]
Nc1c(Cl)ncnc1N/N=C/c1ccnc2ccccc12	inconclusive: 1.41 µM [inhibitor, partial curve]	–
CN1C(=O)c2cccc(NCCCCCCN3C(=O)c4ccccc4C3=O)c2C1=O	inconclusive: 3.16 µM [inhibitor, full curve]	–

SMILES	Potency	activity change, negative = inhibition
Oc1ccc(N2CCN(c3ncnc4sc5c(c34)CCC5)CC2)cc1	active: 11.2 µM	–
O=C(CCCCCn1c(=S)[nH]c2ccccc2c1=O)N1CCOCC1	inactive	–
Cc1cc(C)c(CSc2ncc(-c3ccc([N+](=O)[O-])cc3)[nH]2)c(C)c1	inconclusive: 35.5 µM [inhibitor, single point]	–
Cc1ccc2cc3c(NC(=O)c4ccco4)nn(C)c3nc2c1	inconclusive: 14.1 µM [inhibitor, single point]	–
CC(C)Sc1nc(N2CCCC2)c2c(c1C#N)CC(C)(C)OC2	inconclusive: 22.4 µM [inhibitor, single point]	–
CCC1Oc2ccc(C)cc2N(CC(=O)N(Cc2ccc(C)o2)C2CC(C)(C)NC(C)(C)C2)C1=O (stereo unspecified)	inconclusive: 22.4 µM [inhibitor, single point]	–
CSc1cccc(NC(=O)C2CCCN2S(=O)(=O)c2ccc(Br)s2)c1 (stereo unspecified)	inconclusive: 5.62 µM [inhibitor, single point]	–
O=C(N/N=C/c1ccc(N2CCOCC2)o1)c1ccccc1[N+](=O)[O-]	inconclusive: 35.5 µM [activator, single point]	–
O=C1CC(O)(C(F)(F)F)Oc2c1ccc1ccccc21 (stereo unspecified)	inconclusive: 22.4 µM [inhibitor, partial curve]	–
CCN(CC)c1ccc(/C=c2\sc3nc4ccccc4n3c2=O)c(O)c1	inconclusive: 20 µM [inhibitor, single point]	–
COc1cc(N/N=C(\C)c2ccc(N)cc2)nc(-c2ccccc2)n1	inconclusive: 35.5 µM [inhibitor, single point]	–
Nc1nnc(C(c2ccccc2)c2ccccc2)s1	inactive	–
COc1ccc(NC(=O)c2ccccc2F)cc1Cl	–	inactive: -4.04% [at 9.22 µM]
O=c1c2sccc2nc(SCc2ccc([N+](=O)[O-])cc2)n1Cc1ccccn1	inactive	–
CC(=O)c1c(C)[nH]c(C(=O)COc2cc(C)ccc2C(C)C)c1C	active: 1 µM	–
Cc1ccc(-c2nn(C)c(=O)c3ccccc23)cc1CNS(C)(=O)=O	inconclusive: 12.6 µM [activator, single point]	–
Cc1nc(-c2ccccc2)sc1C(=O)/C=C/c1ccc(Cl)cc1	inactive	–
O=C1c2ccsc2SCCN1Cc1ccccc1Cl	inconclusive: 3.16 µM [inhibitor, partial curve]	–
Cn1cc([N+](=O)[O-])c(C(=O)Nc2cnn(Cc3ccc(F)cc3)c2)n1	inconclusive: 2.82 µM [activator, single point]	–
CCc1ccccc1OCC(=O)N(CC)CC(=O)NCc1ccc(F)cc1	inconclusive: 5.62 µM [inhibitor, single point]	–
COc1ccc(CCCc2n[nH]c(=S)n2C)cc1C	inconclusive: 35.5 µM [inhibitor, single point]	–
COC(=O)c1ccc(NC(=O)Nc2ccccc2F)cc1	inconclusive: 31.6 µM [inhibitor, single point]	–
Cn1c(/C=N/Nc2nc3ccccc3[nH]2)nc2ccccc21	inconclusive: 8.91 µM [inhibitor, partial curve]	–
COC(=O)C1=C(C)NC(=S)N(C(C)=O)C1c1ccccc1 (stereo unspecified)	inactive	–

SMILES	Potency	activity change, negative = inhibition
O=C(COC(=O)c1cccc(S(=O)(=O)NCc2ccccc2)c1)c1ccc2c(c1)OCCO2	inconclusive: 12.6 µM [inhibitor, single point]	–
CCOC(=O)C1=C(CC)Nc2ccccc2N/C1=N\S(=O)(=O)c1cc(Br)ccc1Br	active: 17.8 µM	–
CCOC(=O)C1=C(N)OC2=C(C(=O)CC(C)(C)C2)C1c1cc(CSc2nnnn2C)cs1 (stereo unspecified)	inactive	–
O=S(=O)(NCCSc1ccc(Cl)cc1)c1ccc2c(c1)OCCO2	inconclusive: 22.4 µM [inhibitor, single point]	–
COc1ccc(C(=O)NC(Nc2ccccc2)C(Cl)(Cl)Cl)cc1 (stereo unspecified)	inconclusive: 12.6 µM [inhibitor, partial curve]	–
O=c1oc2ccc(Cl)cc2nc1/C=C(\O)c1cccs1	inconclusive: 3.16 µM [activator, partial curve]	–
N=c1c2c(ncn1Cc1ccco1)Oc1c(ccc3ccccc13)C2c1ccccc1 (stereo unspecified)	inconclusive: 15.8 µM [inhibitor, single point]	–
COc1ccc(C(=O)Nc2ccc3nc4n(c(=O)c3c2)CCCC4)cc1[N+](=O)[O-]	inconclusive: 15.8 µM [activator, single point]	–
CC(C)NC(=O)/C(=C/c1cn(-c2ccccc2)nc1-c1cccc([N+](=O)[O-])c1)NC(=O)c1ccccc1	inactive	–
CCOc1cc(NC(=S)NCCCN2CCOCC2)c(OCC)cc1NC(=O)C1CCCCC1	–	inactive: -3.31% [at 9.22 µM]
CCCC(=O)NNc1cc(=O)c2c(=O)n(C)c(=O)n(C)c2[nH]1	inconclusive: 5.62 µM [activator, single point]	–
CCOc1ccc(N(C)S(=O)(=O)c2ccc3[nH]cc(C(=O)NCC4CCCO4)c(=O)c3c2)cc1 (stereo unspecified)	inconclusive: 2.82 µM [inhibitor, partial curve]	–
CN(C)CCOc1ncnc2c1oc1ccccc12	inconclusive: 0.562 µM [inhibitor, full curve, poor fit]	–
O=C1[C@H]2[C@H](ON3CCCC[C@H]23)C(=O)N1c1ccc(Cl)cc1	inactive	–
Cc1[nH]c2ccccc2c1C(=O)C(=O)NCc1cccs1	inactive	–
C=C1CC[C@H](O)C/C1=C/C=C1\CCC[C@]2(C)[C@@H]([C@H](C)CCCC(C)(C)O)CC[C@@H]12	inactive	–
COc1ccc(S(=O)(=O)N2CCCC2C(=O)n2nc(C)cc2C)cc1 (stereo unspecified)	inconclusive: 0.0282 µM [inhibitor, full curve, poor fit]	–
Nc1nc2n(c1C(=O)c1ccccc1)CCC2	inconclusive: 22.4 µM [inhibitor, single point]	–
CN(C)S(=O)(=O)N1CCN(CC(O)COc2ccc3cc(Br)ccc3c2)CC1 (stereo unspecified)	active: 11.2 µM	–
O=C(N/N=C/c1cn(-c2ccccc2)nc1-c1cccs1)c1ccncc1	inconclusive: 35.5 µM [inhibitor, single point]	–
COCCOC(=O)c1c(C)oc2ccc(OCc3ccccc3)cc12	inactive	–
CSc1nc(=S)cc(C)[nH]1	–	inactive: -9.12% [at 9.22 µM]
CC(=O)c1ccc(-c2ccccc2[C@H]2[C@H]3C=CC[C@@H](C)[C@@H]3C(=O)N2Cc2ccccc2)cc1	inconclusive: 5.62 µM [activator, single point]	–
